Source: PubChem BioAssay AID504444 (National Center for Advancing Translational Sciences (NCATS), 2011)
The whole screen tested about 360,000 compounds, of which about 7,500 (2.1%) were called active. The shares of active, inactive and inconclusive entries below differ from those in the screen. Calls come from the whole dose curve; as a rule, active = well fitted inhibition curve with a large enough effect; inconclusive = small, poorly fitted or top-dose-only effect, or effect the other way; inactive = flat fitted curve, though single readings scatter. Potencies beside an inconclusive call are fits to weak or partial responses and may not hold up.

experiment: Nrf2 qHTS screen for inhibitors; conditions: A549 ARE-Fluc reporter, luciferase luminescence, 18-24 h; series mostly up to 46 µM; note: nearly all actives have a fitted effect of over 60% in size
Outline: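 In this cell-based qHTS, ARE-driven firefly luciferase in A549 cells reports Nrf2 activity; the luminescent signal after BugLite lysis is the measured value, with a prior CellTiter-Fluor read for cell health.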
Potency is the fitted concentration of half-maximal effect.

Compound | Potency
COc1ccc(S(=O)(=O)N2CCCCC2)cc1NC(=O)c1c(F)cccc1Cl | inconclusive: 2.91 µM [falling, partial curve, poor fit]
O=C(Nc1cc(C(F)(F)F)ccc1-n1cncn1)c1ccc(Cl)cc1 | inconclusive: 3.66 µM [falling, full curve, poor fit]
COCCNC(=O)c1cn(C)c2ccc(S(=O)(=O)N3CCCC3)cc2c1=O | inconclusive: 18.4 µM [falling, single point]
CC(C)(Cc1ccc(O)cc1)NC(=O)CC(=O)N/N=C/c1ccc(Cl)cc1 | inactive
O=C(NNS(=O)(=O)c1ccc(Br)cc1)C1CCCCC1 | inconclusive: 9.2 µM [falling, partial curve, poor fit]
CS(=O)(=O)Oc1ccc2c(c1)O/C(=C\c1cccc([N+](=O)[O-])c1)C2=O | inactive
COc1ccc(-c2c(-c3cc(OC)cc(OC)c3)sc3ccc(OC)cc23)cc1 | inactive
O=C(COc1ccccc1[N+](=O)[O-])Nc1ccc2c(c1)OCO2 | inconclusive: 20.6 µM [activator, single point]
Nc1cc(OC(=O)c2ccc(F)cc2)nn1S(=O)(=O)c1ccc(F)cc1 | inconclusive: 9.2 µM [falling, partial curve, poor fit]
O=C(CSc1ccccc1)Nc1ccc(S(=O)(=O)NCC2CCCO2)cc1 (configuration not stated) | inconclusive: 23.1 µM [falling, single point]
COc1ccccc1C1CCN(C(=S)Nc2ccc(Br)cc2)CC1 | inconclusive: 14.6 µM [activator, partial curve, poor fit]
NS(=O)(=O)c1ccc(NC(=O)c2cc(-c3cccs3)nc3ccccc23)cc1 | inconclusive: 29.1 µM [falling, single point]
CN(C)S(=O)(=O)c1cccc(NC(=O)c2cccc(S(=O)(=O)N3CCc4ccccc43)c2)c1 | active: 4.61 µM
O=C(NNC(=O)c1ccccc1[N+](=O)[O-])c1ccc(NS(=O)(=O)c2cccs2)cc1 | inactive
Cc1c(Cl)c(=O)oc2cc(OCC(=O)N3CCCC(C)C3)ccc12 (configuration not stated) | inconclusive: 7.31 µM [activator, single point]
CCOC(=O)c1nn(-c2ccccc2C)c2nc(-c3ccc(Cl)cc3)c(C#N)c(=O)n12 | inactive
Cc1ccc(NC(=O)CCCc2nnc3n(C)c(=O)c4sccc4n23)cc1C | inactive
C=CCOC(=O)C1=C(C)Nc2ncnn2C1c1cc(Br)ccc1F (configuration not stated) | inconclusive: 6.51 µM [falling, partial curve]
CCCc1nc(SCC(=O)Nc2ccccc2OC)c2c(=O)n(C)c(=O)n(C)c2n1 | inconclusive: 16.4 µM [falling, partial curve]
CCOc1cc(/C=C2\SC(=O)N(CC(=O)Nc3ccccc3F)C2=O)cc([N+](=O)[O-])c1O | active: 18.4 µM
Cc1ccc(OCC(=O)NNC(=S)NC(=O)c2ccc(Br)o2)c(C)c1 | inconclusive: 29.1 µM [falling, single point]

Compound | Potency
Cc1ccc(C(=O)CN(C(=O)c2ccc(Cl)cc2)N2C(=O)c3ccccc3C2=O)cc1 | inconclusive: 0.651 µM [falling, full curve, poor fit]
Cc1cccc(OCC(=O)Nc2cccc(O)c2)c1 | inconclusive: 16.4 µM [activator, single point]
O=C1C2C(c3ccccc3)CC=CC2[C@H](c2ccoc2)N1Cc1ccccc1 (some centres not stated) | inconclusive: 29.1 µM [falling, single point]
CCc1nnc(NC(=O)c2ccc(S(=O)(=O)N3CCc4ccccc4C3)cc2)s1 | inconclusive: 3.26 µM [falling, partial curve, poor fit]
Cc1ccc(-c2nc(N)n(S(C)(=O)=O)n2)cc1 | inconclusive: 2.59 µM [activator, partial curve]
O=C(O)c1ccc(CNC(=O)C2CCCN2C(=O)OCc2ccccc2)cc1 (configuration not stated) | inactive
O=S(=O)(c1ccccc1)c1nc(-c2ccccc2F)oc1NCc1cccnc1 | inactive
COCCCNC(=O)Cc1c(C)c2c(cc(C)c3c(C(C)(C)C)coc32)oc1=O | inconclusive: 4.11 µM [activator, full curve, poor fit]
COc1ccc(N=Cc2nc(-c3ccccc3)oc2OC(C)=O)cc1 | inconclusive: 16.4 µM [falling, partial curve, poor fit]
Cc1nc(-c2cccc(NC(=O)c3cccc(S(=O)(=O)N4CCCC4)c3)c2)cs1 | inconclusive: 18.4 µM [falling, single point]
C=CCNc1ncnc2c1[nH]c1ccccc12 | inconclusive: 14.6 µM [falling, partial curve, poor fit]
Cc1nonc1NC(=O)c1oc2ccccc2c1C | inconclusive: 25.9 µM [activator, partial curve, poor fit]
Cc1ccccc1NC(=O)c1sc(NC(=O)COc2ccccc2)c(C#N)c1C | inconclusive: 11.6 µM [falling, partial curve]
COc1ccccc1NC(=O)c1cc(N)cc(C(=O)Nc2ccccc2OC)c1 | inconclusive: 25.9 µM [falling, single point]
Cc1[nH]c2ccccc2c1/C=N/n1cnnc1 | inactive
COc1ccc2cc3cc(C(=O)NCc4cccs4)oc3nc2c1 | inconclusive: 4.61 µM [falling, full curve, poor fit]
COc1ccc(Nc2nc(N3CCCC3)c3ccccc3n2)cc1 | inconclusive: 29.1 µM [falling, single point]
C[C@H](CO)N1C[C@H](C)[C@@H](CN(C)C(=O)Nc2ccccc2)Oc2ccc(NC(=O)Nc3ccc(C(F)(F)F)cc3)cc2C1=O | inconclusive: 29.1 µM [falling, single point]
COc1ccc(CCNS(=O)(=O)c2ccc3c(c2)c(=O)n(C)c(=O)n3C)cc1OC | inactive
Cc1ccnc(NC(=O)CNC(=O)Cc2cccc3ccccc23)c1 | inconclusive: 16.4 µM [activator, partial curve]
Cc1cc(Cl)ccc1OCCCC(=O)NO | inconclusive: 20.6 µM [activator, partial curve]

Some of the entries above, reformatted.
Cc1cccc(OCC(=O)Nc2cccc(O)c2)c1
  Potency: inconclusive: 16.4 µM [activator, single point]
CCc1nnc(NC(=O)c2ccc(S(=O)(=O)N3CCc4ccccc4C3)cc2)s1
  Potency: inconclusive: 3.26 µM [falling, partial curve, poor fit]
